# Reference: patent US20260070994A1 (PASSION TECHNOLOGY ZHUHAI PARTNERSHIP LIMITED PARTNERSHIP, published 2026)
# Chains of the proteins cited; added tags and fusions are not shown. Residues count along the entry.
# UniProt P01589, residues 22-240: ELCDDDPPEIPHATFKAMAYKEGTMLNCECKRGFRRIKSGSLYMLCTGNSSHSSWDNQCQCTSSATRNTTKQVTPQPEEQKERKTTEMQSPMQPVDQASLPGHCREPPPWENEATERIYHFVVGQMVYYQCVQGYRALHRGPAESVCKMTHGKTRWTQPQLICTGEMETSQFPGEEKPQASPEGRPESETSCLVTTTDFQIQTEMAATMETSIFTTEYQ
# Results are given in words; binding and its absence hold for the method and conditions named. Some entries that bind do so weakly or less than the wild type.
# Biological target: CD25-His recombinant protein (human) (UniProt P01589)
# Test: BLI binding kinetics
row,binding,Binder
1,binds,"clone A07 (VHH, Recombinant antibody from a eukaryotic expression vector (293F); also called A-A7; A-A07-VHH) VHH: EVQLVESGGGLAQPGGSLRLSCAVSGFTLDYYAIGWFRQAPGKEREGVSCISGSDGRTAYTDSVKGRFTISKDNAKNTVYLQMNSLKPEDTAVYYCAADPGYYCAGEVRYAGSLYDYWGQGTQVTVSS"
2,binds,A07-HM5 (VHH) VHH: EVQLVESGGGLVQPGGSLRLSCAVSGFTLDYYAIGWFRQAPGKGLEGVSCISGSDGRTAYADSVKGRFTISKDNAKNTVYLQMNSLRAEDTAVYYCAADPGYYCAGEVRYAGSLYDYWGQGTLVTVSS

# Biological target: CD25-His recombinant protein (human) (UniProt P01589)
# Test: ELISA, CD25-His coated
row,Binder,binding
1,D01 (VHH) VHH: QVQLVESGGGLAQPGGSLRLSCAASGFTFSNFAVSWARQVAGEGFEWVSGVYSDGDTYYADSVKDRFIISRDNAKNTLYLQMNSLKPEDTALYYCGAARGRLCSSIMTCDYWGQGTQVTVSS,binds
2,E08 (VHH) VHH: AVQLVESGGGLVQPGGSLRLSCAASGFTFSSYPMGWYRQAPGEECELVAGITSAGGSTNYADSVKGRFTISRDNAKNTVYLQMNSLKPEDTAVYYCNTDPRYYTDSRGPCSWGQGTQVTVSS,binds
3,D04 (VHH) VHH: QVQLVESGGGLVQPGGSLRLSCAASGFTFSSSAVSWARLTPGKRLEWVSAIASDGSTYYADSMQGRFTISRDNAKNTVYLQMNSLKPEDTAVYYCAIPRDGLVPVFGIDYWGQGTQVTVSS,binds
4,A11 (VHH) VHH: DVQLVESGGGLVQPGGSLRLSCAASGFTFSSYAMSWYRQAPGKERELVAYITTSPGYTTYTDSVKGRFTISRDNAKNTVYLQMNSLKPDDTAVYYCNAWRGAPRGDYWGQGTQVTVSS,binds

# Second part, the binder after the results:
row,binding,Binder
1,binds,A05 (VHH) VHH: QVQLVESGGGLAQPGGSLRLSCAASGFTFSIYAMSWARQAPGKGLEWVSGIYSDSSYTYYADSVKGRFTISRDNAKNTLYLQMNSLKPEDTALYYCLKARGSGSYYPFDDYRGQGTQVTVSS
2,binds,"clone A07 (VHH, Recombinant antibody from a eukaryotic expression vector (293F); also called A-A7; A-A07-VHH) VHH: EVQLVESGGGLAQPGGSLRLSCAVSGFTLDYYAIGWFRQAPGKEREGVSCISGSDGRTAYTDSVKGRFTISKDNAKNTVYLQMNSLKPEDTAVYYCAADPGYYCAGEVRYAGSLYDYWGQGTQVTVSS"
3,binds,B04 (VHH) VHH: QVQLVESGGGLVQPGGSLRLSCATSGFTLDYYAIGWFRQAPGKEREGVSCISSSDGTTAYADSVKGRFTISTDNARNTVYLQMNSLKPEDTAVYYCAADLGYYCADNVRYAGSLYDYWGQGTQVTVSS
4,binds,G10 (VHH) VHH: DVQLVESGGGLAQPGGSLRLSCAASGFTFSNYAMNWLRQAPGKGLEWVSGIYSDSSGTYYADSVKGRFTISRDNAKNTLYLQMNSLKPEDTALYYCAKASNSGSYYPWDDDWGQGTQVTVSA

# Biological target: CD25-His recombinant protein (human) (UniProt P01589)
# Test: ELISA, gradient dilution
row,binding,Binder
1,binds,A07-HM6 (VHH) VHH: EVQLLESGGGLVQPGGSLRLSCAVSGFTLDYYAIGWFRQAPGKGLEGVSCISGSDGRTAYGDSVKGRFTISKDNAKNTVYLQMNSLRAEDTAVYYCAADPGYYCAGEVRYAGSLYDYWGQGTLVTVSS
2,binds,A07-HM5 (VHH) VHH: EVQLVESGGGLVQPGGSLRLSCAVSGFTLDYYAIGWFRQAPGKGLEGVSCISGSDGRTAYADSVKGRFTISKDNAKNTVYLQMNSLRAEDTAVYYCAADPGYYCAGEVRYAGSLYDYWGQGTLVTVSS
